# This is one part of the list. Single values are uncertain, as repeats are few or missing.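 Cells were imaged in 1,536-well plates, and nuclei stained with an antibody against cleaved PARP were counted against all DNA-stained nuclei to give the apoptosis fraction. Screening doses were chosen to leave most cells alive, and resting and induced cleaved-PARP levels differ strongly between cell lines.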
# Key:
# Assay in all cases: cleaved PARP positive nuclei fraction relative to DMSO control; melanoma cells; higher = more apoptosis
# Details in all cases: library dose: low library concentration; 72 h
# 501Mel = tested on: 501Mel
# A101D = tested on: A101D
# A2058 = tested on: A2058
# A375 = tested on: A375
# C32 = tested on: C32
# CBRC008 = tested on: CBRC008 (line from a melanoma biopsy)
# CBRC013 = tested on: CBRC013 (line from a melanoma biopsy)
# CBRC014 = tested on: CBRC014 (line from a melanoma biopsy)
# CBRC016 = tested on: CBRC016 (line from a melanoma biopsy)
# CBRC017 = tested on: CBRC017 (line from a melanoma biopsy)
SMILES,cleaved PARP positive nuclei fraction (501Mel) [%],cleaved PARP positive nuclei fraction (A101D) [%],cleaved PARP positive nuclei fraction (A2058) [%],cleaved PARP positive nuclei fraction (A375) [%],cleaved PARP positive nuclei fraction (C32) [%],cleaved PARP positive nuclei fraction (CBRC008) [%],cleaved PARP positive nuclei fraction (CBRC013) [%],cleaved PARP positive nuclei fraction (CBRC014) [%],cleaved PARP positive nuclei fraction (CBRC016) [%],cleaved PARP positive nuclei fraction (CBRC017) [%]
"Cn1cncc1[C@@](N)(c1ccc(Cl)cc1)c1ccc2c(c1)c(-c1cccc(Cl)c1)cc(=O)n2C [tipifarnib] + NCC(=O)Nc1ccc(-n2nc(C(F)(F)F)cc2-c2ccc3c(ccc4ccccc43)c2)cc1 [OSU03012] (first compound 0.01 µM, partner dose 1 µM)",340,44.2,94.5,2900,59.2,131,137,115,115,111
"COc1cc(Nc2ncc(F)c(Nc3ccc4c(n3)NC(=O)C(C)(C)O4)n2)cc(OC)c1OC [Tamatinib] + CC(C)(C)c1cnc(CSc2cnc(NC(=O)C3CCNCC3)s2)o1 [SNS-032] (first compound 0.4 µM, partner dose 0.01 µM)",261,186,140,76.5,52.5,319,164,67.9,32.9,89.9
"C[C@@H]1CCN(C(=O)CC#N)C[C@@H]1N(C)c1ncnc2[nH]ccc12 + COc1cc2c(Oc3ccc4[nH]c(C)cc4c3F)ncnc2cc1OCCCN1CCCC1 [cediranib] (first compound 1 µM, partner dose 0.4 µM)",116,83.2,120,148,29.3,204,94.3,86.3,117,87.2
"O=C(CCCCCCC(=O)Nc1ccccc1)NO [vorinostat] + NC(=O)Nc1cc(-c2cccc(F)c2)sc1C(=O)N[C@H]1CCCNC1 [AZD7762] (first compound 0.08 µM, partner dose 0.02 µM)",164,170,34.2,130,69.1,109,96.9,91.4,143,108
"Nc1cccc2c1CN(C1CCC(=O)NC1=O)C2=O (stereo not given) [lenalidomide] + NCC(=O)Nc1ccc(-n2nc(C(F)(F)F)cc2-c2ccc3c(ccc4ccccc43)c2)cc1 [OSU03012] (first compound 1 µM, partner dose 1 µM)",228,77.6,146,1830,180,137,96.8,75.8,173,107
"CC1(C)NC(=O)N(c2ccc([N+](=O)[O-])c(C(F)(F)F)c2)C1=O [nilutamide] + Cn1cncc1[C@@](N)(c1ccc(Cl)cc1)c1ccc2c(c1)c(-c1cccc(Cl)c1)cc(=O)n2C [tipifarnib] (first compound 1 µM, partner dose 0.01 µM)",385,209,120,205,42.5,176,98.3,94,51.3,110
"Clc1ccc(Nc2nnc(Cc3ccncc3)c3ccccc23)cc1 [vatalanib] + CC1(C)NC(=O)N(c2ccc([N+](=O)[O-])c(C(F)(F)F)c2)C1=O [nilutamide] (first compound 2 µM, partner dose 1 µM)",80,169,82.4,131,160,171,102,123,143,250
"COc1cc(Nc2ncc(F)c(Nc3ccc4c(n3)NC(=O)C(C)(C)O4)n2)cc(OC)c1OC [Tamatinib] + CC1(C)NC(=O)N(c2ccc([N+](=O)[O-])c(C(F)(F)F)c2)C1=O [nilutamide] (first compound 0.4 µM, partner dose 1 µM)",153,55.3,59.3,193,55.3,168,147,107,37.1,89.6
"CO[C@@H]1[C@H](N(C)C(=O)c2ccccc2)C[C@H]2O[C@]1(C)n1c3ccccc3c3c4c(c5c6ccccc6n2c5c31)C(=O)NC4 [Midostaurin] + O=C(Nc1cccc(Cl)c1)Nc1ncc(CCNc2ncnc3ccsc23)s1 [SNS314] (first compound 0.08 µM, partner dose 0.0008 µM)",218,113,72.6,202,161,157,107,158,254,175
"COc1cc(Nc2ncc(F)c(Nc3ccc4c(n3)NC(=O)C(C)(C)O4)n2)cc(OC)c1OC [Tamatinib] + C=CCn1c(=O)c2cnc(Nc3ccc(N4CCN(C)CC4)cc3)nc2n1-c1cccc(C(C)(C)O)n1 [MK1775] (first compound 0.4 µM, partner dose 0.02 µM)",126,106,126,48.9,98.7,168,73.5,102,46.9,112
"COc1cc(Nc2ncc(F)c(Nc3ccc4c(n3)NC(=O)C(C)(C)O4)n2)cc(OC)c1OC [Tamatinib] + OCCn1cc(-c2cnc3nnn(Cc4ccc5ncccc5c4)c3n2)cn1 [PF04217903] (first compound 0.4 µM, partner dose 1 µM)",90.3,110,186,398,49.1,188,88,87.5,77.9,87.6
"C[C@]1(c2nc3c(C(N)=O)cccc3[nH]2)CCCN1 [Veliparib] + NC(=O)Nc1cc(-c2cccc(F)c2)sc1C(=O)N[C@H]1CCCNC1 [AZD7762] (first compound 1.4 µM, partner dose 0.02 µM)",67.6,99.6,64.3,1430,145,43.8,137,76.1,65,108
"CC(=O)c1c(C)c2cnc(Nc3ccc(N4CCNCC4)cn3)nc2n(C2CCCC2)c1=O [palbociclib] + CC1(C)NC(=O)N(c2ccc([N+](=O)[O-])c(C(F)(F)F)c2)C1=O [nilutamide] (first compound 0.04 µM, partner dose 1 µM)",145,57.6,58.4,298,74.5,172,88,117,71.4,110
"OCc1c[nH]c2ccccc12 [Indole-3-carbinol] + CN(C)S(=O)(=O)c1ccc2c(c1)/C(=C/c1cc3c([nH]1)CCCC3)C(=O)N2 [SU6656] (first compound 0.8 µM, partner dose 0.4 µM)",84.2,47.3,30.4,265,102,127,159,111,163,108
"CC(=O)c1c(C)c2cnc(Nc3ccc(N4CCNCC4)cn3)nc2n(C2CCCC2)c1=O [palbociclib] + CC(C)(C)c1cnc(CSc2cnc(NC(=O)C3CCNCC3)s2)o1 [SNS-032] (first compound 0.04 µM, partner dose 0.01 µM)",126,311,110,180,232,77.1,105,103,82.8,95.4
"OCc1c[nH]c2ccccc12 [Indole-3-carbinol] + Cn1cncc1[C@@](N)(c1ccc(Cl)cc1)c1ccc2c(c1)c(-c1cccc(Cl)c1)cc(=O)n2C [tipifarnib] (first compound 0.8 µM, partner dose 0.01 µM)",91.6,93.2,77.7,80.2,47.9,159,68.5,95.9,144,108
"OCCn1cc(-c2cnc3nnn(Cc4ccc5ncccc5c4)c3n2)cn1 + C[C@@H]1CCN(C(=O)CC#N)C[C@@H]1N(C)c1ncnc2[nH]ccc12 [CP690550] (first compound 1 µM, partner dose 1 µM)",385,82.8,151,15.1,31.7,37.1,152,69,61.6,93.8
"CC(=O)c1c(C)c2cnc(Nc3ccc(N4CCNCC4)cn3)nc2n(C2CCCC2)c1=O [palbociclib] + CN(NC(=O)CC(=O)NN(C)C(=S)c1ccccc1)C(=S)c1ccccc1 [STA4783] (first compound 0.04 µM, partner dose 0.006 µM)",680,104,305,9240,199,1620,117,568,326,494
"OCc1c[nH]c2ccccc12 [Indole-3-carbinol] + O=C(Nc1cccc(Cl)c1)Nc1ncc(CCNc2ncnc3ccsc23)s1 [SNS314] (first compound 0.8 µM, partner dose 0.0008 µM)",157,76.2,105,23.5,127,93.8,96.2,72.5,96.3,89.1
"COc1cc(Nc2ncc(F)c(Nc3ccc4c(n3)NC(=O)C(C)(C)O4)n2)cc(OC)c1OC [Tamatinib] + CN(C)S(=O)(=O)c1ccc2c(c1)/C(=C/c1cc3c([nH]1)CCCC3)C(=O)N2 [SU6656] (first compound 0.4 µM, partner dose 0.4 µM)",165,288,243,179,125,471,162,117,123,121
"Nc1cccc2c1CN(C1CCC(=O)NC1=O)C2=O (stereo not given) [lenalidomide] + CN(C)S(=O)(=O)c1ccc2c(c1)/C(=C/c1cc3c([nH]1)CCCC3)C(=O)N2 [SU6656] (first compound 1 µM, partner dose 0.4 µM)",43,55.7,66.5,49.3,301,75.5,121,88.9,278,107
"CC(C)(C)c1cnc(CSc2cnc(NC(=O)C3CCNCC3)s2)o1 + NCC(=O)Nc1ccc(-n2nc(C(F)(F)F)cc2-c2ccc3c(ccc4ccccc43)c2)cc1 [OSU03012] (first compound 0.01 µM, partner dose 1 µM)",520,49.6,79.2,5980,59.6,132,182,89.8,71.4,79.3

# Single values from the list.
# OCCn1cc(-c2cnc3nnn(Cc4ccc5ncccc5c4)c3n2)cn1 + C[C@@H]1CCN(C(=O)CC#N)C[C@@H]1N(C)c1ncnc2[nH]ccc12 [CP690550] (first compound 1 µM, partner dose 1 µM) – cleaved PARP positive nuclei fraction (501Mel) [%]: 385
# O=C(CCCCCCC(=O)Nc1ccccc1)NO [vorinostat] + NC(=O)Nc1cc(-c2cccc(F)c2)sc1C(=O)N[C@H]1CCCNC1 [AZD7762] (first compound 0.08 µM, partner dose 0.02 µM) – cleaved PARP positive nuclei fraction (CBRC013) [%]: 96.9
